Reference: the supplement of paper PMC10849652
The other results are listed elsewhere or left out.

Amino acid sequences for entries named in this document (tags omitted). A change or cut given only in a name is not applied to a line headed by its entry.
UniProt Q99795: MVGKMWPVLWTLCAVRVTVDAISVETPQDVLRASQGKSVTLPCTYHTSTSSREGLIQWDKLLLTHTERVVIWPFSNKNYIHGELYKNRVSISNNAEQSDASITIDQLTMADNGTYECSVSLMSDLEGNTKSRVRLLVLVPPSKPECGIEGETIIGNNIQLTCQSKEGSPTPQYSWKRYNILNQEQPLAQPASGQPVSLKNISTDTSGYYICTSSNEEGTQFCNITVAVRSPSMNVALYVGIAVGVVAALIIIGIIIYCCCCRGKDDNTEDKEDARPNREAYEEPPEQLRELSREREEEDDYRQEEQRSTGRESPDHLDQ
UniProt P62879, whole entry, looked up: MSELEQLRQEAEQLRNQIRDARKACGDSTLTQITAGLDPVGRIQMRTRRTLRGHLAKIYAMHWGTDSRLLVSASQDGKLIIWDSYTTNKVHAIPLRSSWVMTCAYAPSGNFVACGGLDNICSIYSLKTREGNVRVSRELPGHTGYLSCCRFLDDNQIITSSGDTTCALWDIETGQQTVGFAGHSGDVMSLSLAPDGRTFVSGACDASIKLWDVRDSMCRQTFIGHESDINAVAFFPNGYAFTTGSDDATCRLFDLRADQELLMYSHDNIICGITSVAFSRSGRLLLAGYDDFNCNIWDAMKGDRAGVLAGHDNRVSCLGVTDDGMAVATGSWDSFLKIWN
UniProt Q9UHW5, whole entry, looked up: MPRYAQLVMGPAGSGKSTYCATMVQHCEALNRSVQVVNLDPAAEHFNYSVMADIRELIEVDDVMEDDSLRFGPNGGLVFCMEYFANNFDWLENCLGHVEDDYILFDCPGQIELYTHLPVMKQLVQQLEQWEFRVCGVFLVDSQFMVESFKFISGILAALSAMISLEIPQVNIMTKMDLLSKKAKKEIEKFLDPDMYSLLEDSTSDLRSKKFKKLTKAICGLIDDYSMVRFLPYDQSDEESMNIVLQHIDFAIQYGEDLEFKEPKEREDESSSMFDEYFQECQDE
UniProt P19440: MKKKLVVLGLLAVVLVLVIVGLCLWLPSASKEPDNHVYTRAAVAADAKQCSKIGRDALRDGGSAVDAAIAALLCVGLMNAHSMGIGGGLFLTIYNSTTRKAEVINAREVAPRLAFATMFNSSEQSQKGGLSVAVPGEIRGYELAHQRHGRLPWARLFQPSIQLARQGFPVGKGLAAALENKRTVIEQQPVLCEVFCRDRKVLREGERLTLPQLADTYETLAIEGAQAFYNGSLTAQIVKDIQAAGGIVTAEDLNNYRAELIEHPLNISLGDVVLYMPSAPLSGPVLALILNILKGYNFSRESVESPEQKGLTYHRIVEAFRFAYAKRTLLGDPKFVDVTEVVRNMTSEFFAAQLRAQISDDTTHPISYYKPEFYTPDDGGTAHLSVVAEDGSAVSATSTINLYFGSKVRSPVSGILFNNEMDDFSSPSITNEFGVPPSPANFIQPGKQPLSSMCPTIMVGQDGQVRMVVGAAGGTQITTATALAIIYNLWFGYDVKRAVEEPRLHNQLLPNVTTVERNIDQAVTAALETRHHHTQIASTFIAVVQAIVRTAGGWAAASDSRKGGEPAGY
UniProt Q9Y3E0: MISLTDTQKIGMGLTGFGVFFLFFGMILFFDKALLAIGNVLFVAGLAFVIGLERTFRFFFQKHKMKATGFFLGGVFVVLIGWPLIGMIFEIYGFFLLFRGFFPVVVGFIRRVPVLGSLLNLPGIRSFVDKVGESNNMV
UniProt Q3T906: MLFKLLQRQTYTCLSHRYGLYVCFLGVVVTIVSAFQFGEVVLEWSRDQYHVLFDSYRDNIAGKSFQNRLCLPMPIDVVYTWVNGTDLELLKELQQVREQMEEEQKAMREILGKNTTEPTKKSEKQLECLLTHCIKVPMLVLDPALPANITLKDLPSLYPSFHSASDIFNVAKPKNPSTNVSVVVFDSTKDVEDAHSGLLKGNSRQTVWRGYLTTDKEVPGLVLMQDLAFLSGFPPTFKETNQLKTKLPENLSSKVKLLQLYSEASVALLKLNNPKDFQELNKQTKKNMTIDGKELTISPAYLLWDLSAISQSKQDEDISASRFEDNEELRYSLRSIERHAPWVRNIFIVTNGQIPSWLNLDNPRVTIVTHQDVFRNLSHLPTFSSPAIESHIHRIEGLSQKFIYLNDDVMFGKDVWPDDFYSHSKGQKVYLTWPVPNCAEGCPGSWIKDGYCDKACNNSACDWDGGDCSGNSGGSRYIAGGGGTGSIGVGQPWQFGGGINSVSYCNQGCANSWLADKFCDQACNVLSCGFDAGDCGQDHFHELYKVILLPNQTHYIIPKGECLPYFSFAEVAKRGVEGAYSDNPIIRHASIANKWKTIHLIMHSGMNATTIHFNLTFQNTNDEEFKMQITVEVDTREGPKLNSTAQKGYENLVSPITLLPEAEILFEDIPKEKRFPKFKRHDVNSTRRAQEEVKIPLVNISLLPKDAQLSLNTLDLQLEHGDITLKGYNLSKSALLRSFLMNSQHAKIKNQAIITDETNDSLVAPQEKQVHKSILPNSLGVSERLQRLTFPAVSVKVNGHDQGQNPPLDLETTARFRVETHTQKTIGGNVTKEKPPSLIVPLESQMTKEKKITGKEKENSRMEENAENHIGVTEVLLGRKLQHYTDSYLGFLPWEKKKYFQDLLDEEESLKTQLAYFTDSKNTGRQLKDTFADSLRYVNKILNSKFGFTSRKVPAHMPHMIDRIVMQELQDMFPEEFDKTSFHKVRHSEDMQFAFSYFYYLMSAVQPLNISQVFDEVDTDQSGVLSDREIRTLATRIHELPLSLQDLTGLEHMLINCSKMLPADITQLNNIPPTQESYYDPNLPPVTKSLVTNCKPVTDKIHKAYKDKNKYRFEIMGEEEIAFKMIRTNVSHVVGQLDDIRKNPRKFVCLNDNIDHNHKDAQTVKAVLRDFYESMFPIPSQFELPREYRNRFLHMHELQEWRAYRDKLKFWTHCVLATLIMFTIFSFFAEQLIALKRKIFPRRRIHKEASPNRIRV
UniProt Q96I76: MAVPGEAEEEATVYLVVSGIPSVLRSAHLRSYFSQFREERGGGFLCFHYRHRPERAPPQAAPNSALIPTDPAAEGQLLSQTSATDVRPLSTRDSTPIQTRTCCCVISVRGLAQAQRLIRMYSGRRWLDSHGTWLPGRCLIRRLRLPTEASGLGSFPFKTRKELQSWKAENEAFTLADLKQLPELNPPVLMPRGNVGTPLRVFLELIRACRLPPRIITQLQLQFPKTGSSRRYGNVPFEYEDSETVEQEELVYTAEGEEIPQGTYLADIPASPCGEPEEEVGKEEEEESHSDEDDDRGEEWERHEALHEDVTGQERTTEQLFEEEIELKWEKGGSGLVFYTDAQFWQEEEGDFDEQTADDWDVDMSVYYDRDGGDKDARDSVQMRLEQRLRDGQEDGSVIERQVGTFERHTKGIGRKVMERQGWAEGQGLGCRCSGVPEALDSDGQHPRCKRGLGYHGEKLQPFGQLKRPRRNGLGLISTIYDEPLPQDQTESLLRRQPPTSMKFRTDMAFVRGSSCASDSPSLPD
UniProt Q8N335: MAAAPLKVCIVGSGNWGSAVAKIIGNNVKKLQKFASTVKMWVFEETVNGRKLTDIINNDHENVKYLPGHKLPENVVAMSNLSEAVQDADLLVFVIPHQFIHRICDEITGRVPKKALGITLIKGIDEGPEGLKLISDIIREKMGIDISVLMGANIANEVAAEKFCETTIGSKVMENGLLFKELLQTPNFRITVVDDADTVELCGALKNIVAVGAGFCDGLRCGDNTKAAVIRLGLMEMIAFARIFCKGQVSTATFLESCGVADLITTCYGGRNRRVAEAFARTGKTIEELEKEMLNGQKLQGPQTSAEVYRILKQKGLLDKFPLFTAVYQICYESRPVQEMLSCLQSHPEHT
UniProt Q86V85: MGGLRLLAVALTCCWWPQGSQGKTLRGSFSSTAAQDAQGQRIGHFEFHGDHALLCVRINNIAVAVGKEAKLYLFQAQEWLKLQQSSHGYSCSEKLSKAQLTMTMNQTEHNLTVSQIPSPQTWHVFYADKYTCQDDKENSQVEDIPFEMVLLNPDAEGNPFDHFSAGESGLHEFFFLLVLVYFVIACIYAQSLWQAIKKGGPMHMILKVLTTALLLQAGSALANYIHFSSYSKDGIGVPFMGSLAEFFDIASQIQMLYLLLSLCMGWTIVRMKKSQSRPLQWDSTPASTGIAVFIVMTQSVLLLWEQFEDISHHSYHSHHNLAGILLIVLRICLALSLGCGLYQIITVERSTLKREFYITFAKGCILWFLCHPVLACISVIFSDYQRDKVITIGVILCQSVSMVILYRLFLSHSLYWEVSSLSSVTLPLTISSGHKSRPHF
UniProt Q9UJJ9: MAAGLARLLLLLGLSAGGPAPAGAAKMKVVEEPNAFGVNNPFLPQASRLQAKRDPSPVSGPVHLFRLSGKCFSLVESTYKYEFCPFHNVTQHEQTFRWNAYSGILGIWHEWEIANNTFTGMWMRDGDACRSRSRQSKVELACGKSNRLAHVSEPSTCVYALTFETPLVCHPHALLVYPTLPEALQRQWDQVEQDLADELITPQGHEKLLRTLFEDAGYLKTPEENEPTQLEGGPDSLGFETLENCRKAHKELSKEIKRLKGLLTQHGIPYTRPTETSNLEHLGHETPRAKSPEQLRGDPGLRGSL
UniProt Q15743: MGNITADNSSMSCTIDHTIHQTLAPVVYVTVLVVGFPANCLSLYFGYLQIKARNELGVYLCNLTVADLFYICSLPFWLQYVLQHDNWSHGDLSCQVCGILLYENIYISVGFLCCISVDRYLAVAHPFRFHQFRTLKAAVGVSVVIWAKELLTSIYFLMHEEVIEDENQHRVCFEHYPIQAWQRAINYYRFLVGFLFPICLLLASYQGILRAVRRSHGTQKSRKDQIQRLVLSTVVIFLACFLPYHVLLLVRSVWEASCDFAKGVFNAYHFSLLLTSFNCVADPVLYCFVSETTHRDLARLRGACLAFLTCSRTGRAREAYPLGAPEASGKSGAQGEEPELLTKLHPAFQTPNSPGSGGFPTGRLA
UniProt Q53EU6: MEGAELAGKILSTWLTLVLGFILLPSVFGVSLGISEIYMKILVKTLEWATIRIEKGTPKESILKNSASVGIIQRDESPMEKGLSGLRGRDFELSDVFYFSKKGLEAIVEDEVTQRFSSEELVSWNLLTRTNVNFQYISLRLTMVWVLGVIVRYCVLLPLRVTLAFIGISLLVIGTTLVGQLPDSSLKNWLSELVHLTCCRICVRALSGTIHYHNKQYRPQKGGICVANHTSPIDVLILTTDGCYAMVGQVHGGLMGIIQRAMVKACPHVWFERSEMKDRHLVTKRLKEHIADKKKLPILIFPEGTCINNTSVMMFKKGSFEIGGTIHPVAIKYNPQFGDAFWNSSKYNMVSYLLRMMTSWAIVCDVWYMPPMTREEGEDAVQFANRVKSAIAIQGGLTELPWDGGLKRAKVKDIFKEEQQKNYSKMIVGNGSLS
UniProt Q9NWQ4: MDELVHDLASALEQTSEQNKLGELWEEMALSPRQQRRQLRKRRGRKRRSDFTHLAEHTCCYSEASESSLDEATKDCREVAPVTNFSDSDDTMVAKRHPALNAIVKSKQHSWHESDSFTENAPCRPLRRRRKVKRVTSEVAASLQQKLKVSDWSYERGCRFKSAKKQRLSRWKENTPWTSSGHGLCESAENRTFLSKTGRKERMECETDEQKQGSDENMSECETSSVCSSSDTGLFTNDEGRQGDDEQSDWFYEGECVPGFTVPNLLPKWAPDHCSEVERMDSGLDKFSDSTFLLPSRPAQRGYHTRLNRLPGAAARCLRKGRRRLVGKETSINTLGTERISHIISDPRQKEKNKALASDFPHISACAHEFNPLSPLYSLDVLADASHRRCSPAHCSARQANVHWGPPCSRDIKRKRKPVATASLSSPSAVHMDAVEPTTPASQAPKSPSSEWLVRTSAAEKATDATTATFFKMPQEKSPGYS
UniProt Q9BVP2: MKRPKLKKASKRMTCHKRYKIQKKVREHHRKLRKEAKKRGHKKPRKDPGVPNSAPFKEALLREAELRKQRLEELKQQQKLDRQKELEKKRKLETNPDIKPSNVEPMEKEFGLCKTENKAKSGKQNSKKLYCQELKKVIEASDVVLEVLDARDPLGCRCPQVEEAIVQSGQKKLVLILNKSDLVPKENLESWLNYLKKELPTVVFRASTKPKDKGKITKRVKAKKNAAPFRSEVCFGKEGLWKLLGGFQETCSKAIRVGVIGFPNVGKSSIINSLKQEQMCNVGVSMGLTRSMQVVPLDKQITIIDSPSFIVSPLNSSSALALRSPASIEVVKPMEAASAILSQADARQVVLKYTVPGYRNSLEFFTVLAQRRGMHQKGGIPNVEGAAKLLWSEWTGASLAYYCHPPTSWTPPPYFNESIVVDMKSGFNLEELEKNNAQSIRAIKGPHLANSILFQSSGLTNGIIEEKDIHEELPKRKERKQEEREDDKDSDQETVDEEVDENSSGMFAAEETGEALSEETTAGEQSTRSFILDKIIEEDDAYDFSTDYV
UniProt O60234, whole entry, looked up: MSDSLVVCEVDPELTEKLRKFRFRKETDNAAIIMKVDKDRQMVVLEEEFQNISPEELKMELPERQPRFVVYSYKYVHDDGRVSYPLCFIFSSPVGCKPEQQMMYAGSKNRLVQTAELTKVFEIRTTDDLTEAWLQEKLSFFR

What was measured:
Test in all cases: log2 fold change, soluble protein after heating vs DMSO (PISA); higher = thermal stabilisation; K562 lysate, 10 uM; active = over 0.2 and 3.5 SD of the protein, either way, in both replicates (recomputed)
[1] = compound: NCC(=O)Nc1ccc(-n2nc(C(F)(F)F)cc2-c2ccc3c(ccc4ccccc43)c2)cc1
Summary of the method: (§1)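 To prepare the extract, K562 pellets were dounce-homogenised in PBS pH 7.4 with 1 mM MgCl2, giving crude material at 1 mg/mL protein. This was treated with 10 μM compound for 30 min, then heated in aliquots for 3 min over 48°C-58°C before pooling and addition of NP-40 to 0.5% at 4°C. Centrifugation at 21,000xg for 90 min left soluble protein in the supernatant, which TMTpro 16plex LC-MS/MS quantified with equalised channel sums. Results are log-two fold changes in thermal stability compared with solvent controls, from duplicates.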

vorinostat = compound: O=C(CCCCCCC(=O)Nc1ccccc1)NO [vorinostat]
Summary of the method: as §1

silmitasertib = compound: O=C(O)c1ccc2c(c1)nc(Nc1cccc(Cl)c1)c1ccncc12 [silmitasertib]
Summary of the method: as §1

entospletinib = compound: c1cn2cc(-c3ccc4cn[nH]c4c3)nc(Nc3ccc(N4CCOCC4)cc3)c2n1 [entospletinib]
Summary of the method: as §1

[2] = compound: O=C1NC(=O)C(c2cnc3ccccn23)=C1c1cn2c3c(cc(F)cc13)CN(C(=O)N1CCCCC1)CC2
Summary of the method: as §1

Target	log2 fold change [1]	log2 fold change (vorinostat)	log2 fold change (silmitasertib)	log2 fold change (entospletinib)	log2 fold change [2]
GPA33 (UniProt Q99795)	inactive: 0.041	inactive: 0.14	inactive: 0.051	inactive: 0.017	–
GIGYF2 (UniProt Q6Y7W6)	inactive: -0.001	active: -0.252	inactive: -0.007	inactive: 0.017	inactive: -0.042
GK5 (UniProt Q6ZS86)	–	–	–	–	inactive: 0.241
GNA12 (UniProt Q03113)	inactive: 0.263	–	–	inactive: -0.085	inactive: 0.032
GPNMB (UniProt Q14956)	–	–	–	–	inactive: 0.782
GOSR1 (UniProt E9PCW1)	–	–	–	–	inactive: 0.157
GMEB1 isoform 2 (UniProt Q9Y692)	–	–	–	–	inactive: -0.109
GNB2 (UniProt P62879)	inactive: 0.019	inactive: 0.032	inactive: -0.019	inactive: -0.006	inactive: -0.036
GNAS isoform 3 (UniProt P63092)	–	inactive: 0.138	inactive: 0.066	–	inactive: -0.106
GLCE (UniProt O94923)	–	inactive: -0.077	inactive: -0.011	inactive: -0.032	inactive: 0.118
GPN3 isoform 2 (UniProt Q9UHW5)	inactive: 0.059	inactive: 0.037	inactive: 0.023	inactive: 0.082	inactive: 0.008
GLRX (UniProt P35754)	inactive: 0.012	–	–	inactive: 0.013	inactive: -0.032
GPATCH11 (UniProt Q8N954)	inactive: 0.005	inactive: 0.091	inactive: -0.025	inactive: -0.01	inactive: -0.04
GNPAT (UniProt O15228)	inactive: 0.028	inactive: 0.027	inactive: 0.026	inactive: -0.008	inactive: 0.018
GOLGA8R (UniProt I6L899)	–	inactive: 0.161	inactive: -0.152	–	inactive: 0.364
GGT1 (UniProt P19440)	inactive: -0.026	inactive: 0.09	inactive: 0.004	inactive: 0.001	inactive: -0.021
GOLGA1 (UniProt Q92805)	inactive: 0.048	inactive: 0.07	inactive: 0.01	inactive: -0.014	inactive: -0.076

Rewritten with each value named: part of the list above.
GNA12 (UniProt Q03113)
  log2 fold change [1]: inactive: 0.263
  log2 fold change (entospletinib): inactive: -0.085
  log2 fold change [2]: inactive: 0.032
GPNMB (UniProt Q14956)
  log2 fold change [2]: inactive: 0.782

More records:

Target	log2 fold change [1]	log2 fold change (vorinostat)	log2 fold change (silmitasertib)	log2 fold change (entospletinib)	log2 fold change [2]
GOLT1B (UniProt Q9Y3E0)	inactive: -0.014	inactive: -0.099	inactive: 0.02	inactive: 0.008	inactive: 0.057
GNPTAB (UniProt Q3T906)	–	inactive: 0.168	inactive: -0.003	–	inactive: -0.001
GPATCH3 (UniProt Q96I76)	–	inactive: 0.071	inactive: -0.073	–	inactive: 0.084
GPD1L (UniProt Q8N335)	inactive: -0.046	inactive: -0.179	inactive: -0.027	inactive: -0.021	inactive: -0.022
GPLD1 (UniProt P80108)	–	–	–	–	inactive: 0.366
GIPC3 (UniProt Q8TF64)	–	inactive: -0.336	inactive: 0.044	inactive: -0.017	inactive: -0.007
GPR180 (UniProt Q86V85)	–	–	–	–	inactive: 0.102
GNB4 (UniProt Q9HAV0)	–	inactive: 0.006	inactive: 0.017	inactive: 0.029	inactive: -0.059
GNPTG (UniProt Q9UJJ9)	inactive: -0.157	inactive: 0.194	inactive: 0.043	inactive: -0.103	inactive: -0.112
GPR68 (UniProt Q15743)	–	–	–	–	inactive: -0.037
GPAT3 (UniProt Q53EU6)	inactive: -0.031	inactive: 0.019	inactive: -0.016	inactive: -0.039	inactive: 0.012
GPATCH2L (UniProt Q9NWQ4)	–	–	–	inactive: -0.171	inactive: -0.014
GNL3 (UniProt Q9BVP2)	inactive: 0.017	inactive: -0.142	inactive: 0.008	inactive: 0.018	inactive: -0.041
GOLIM4 (UniProt F8W785)	–	–	–	–	inactive: -0.045
GOLIM4 (UniProt O00461)	inactive: 0.006	inactive: 0.107	inactive: -0.023	inactive: 0.029	inactive: -0.022
GMFG (UniProt O60234)	inactive: -0.071	inactive: 0.165	inactive: 0.018	inactive: 0.029	inactive: -0.036
GLE1 (UniProt Q53GS7)	inactive: 0.002	inactive: -0.167	inactive: 0.095	inactive: -0.014	inactive: 0.04
